Some results were stated once for a whole list of compounds, not compound by compound.
Legend:
[1] = tested on: IR minigene exon 11 inclusion (luciferase reading); experiment: In vivo HTS IR-luc minigene assay in transgenic DM1 flies; set-up: species or system Drosophila; settings: 96-well format
HSA LR mice = experiment: Myotonia assessment by electromyography in HSA LR mice; type: in vivo, mouse; settings: reduced from grade 3

## CN(C)CCc1cc2c(c3c1ccc1ccccc13)OCO2 [VLT002, Stephenanthrine]
[1]
  activity (z-score value): above 2

## COc1cc2c(cc1O)CC1c3c(cc(O)c(OC)c3-2)CCN1C (stereo not shown) [VLT015]
[1]
  activity (z-score value): above 2
HSA LR mice; three injections at 60 mg/kg
  myotonia grade after treatment: 1 (1, occasional myotonic discharge in less than 50% of electrode insertions)

## C[N+](C)(C)CCc1cc2c(c3c1ccc1ccccc13)OCO2 [VLT025]
HSA LR mice; three injections at 75 mg/kg
  myotonia grade after treatment: 1 (1, occasional myotonic discharge in less than 50% of electrode insertions)

From patent US20160194274A1, “PHENANTHRENE DERIVATIVES FOR USE AS MEDICAMENTS” (VALENTIA BIOPHARMA, priority 2012, published 2016)
